These are yes or no findings as the source states them, for the method shown. For part of these data: In cells and extracts the contact can be indirect. Some binding calls cover weakened binding; strength is not graded here. Tags and fused reporters may be left off the sequences shown.
Experiments:
[1] = molecular target: human glycine transporter 1b (GlyT1b), wild type, epitope-tagged (human) (UniProt P48067); assay: non-reducing SDS-PAGE and immunoblot of cell lysates; no cross-linker (spontaneously occurring dimers); HEK293 cells stably expressing FLAG-GlyT1b or mutants, total lysates in non-reducing sample buffer, anti-FLAG immunoblot; lysates with or without 100 mM DTT at 22 °C for 1 h
[2] = molecular target: human glycine transporter 1b (GlyT1b), wild type, epitope-tagged (human) (UniProt P48067); assay: co-IP; HEK293 cells co-expressing FLAG-GlyT1 and GlyT1-HA (plasmids 1:1), lysed in RIPA buffer (50 mM Tris, 5 mM EDTA, 150 mM NaCl, 1% Triton X-100, pH 7.5); anti-FLAG M2 or anti-HA agarose at 4 °C overnight; eluted with 3xFLAG or HA peptide; SDS-PAGE and immunoblot for the other tag
[3] = molecular target: human glycine transporter 1b (GlyT1b), wild type, epitope-tagged (human) (UniProt P48067); assay: cross-linking; oxidative cross-linking on intact HEK293 cells with copper phenanthroline (CuP, 1-100 μM) for 15 min at 22 °C in HEPES buffered saline, quenched with 10 mM N-ethylmaleimide; lysates in non-reducing sample buffer, anti-FLAG immunoblot; also with ZnCl2, NMDGCl, Na+, glycine, bitopertin or LY2365109 present, or 100 mM DTT on the lysates

Measured: binding

B1: human glycine transporter 1b (GlyT1b), wild type, epitope-tagged (protein, UniProt P48067-3 1-652)
chain: MSGGDTRAAIARPRMAAAHGPVAPSSPEQNGAVPSEATKRDQNLKRGNWGNQIEFVLTSVGYAVGLGNVWRFPYLCYRNGGGAFMFPYFIMLIFCGIPLFFMELSFGQFASQGCLGVWRISPMFKGVGYGMMVVSTYIGIYYNVVICIAFYYFFSSMTHVLPWAYCNNPWNTHDCAGVLDASNLTNGSRPAALPSNLSHLLNHSLQRTSPSEEYWRLYVLKLSDDIGNFGEVRLPLLGCLGVSWLVVFLCLIRGVKSSGKVVYFTATFPYVVLTILFVRGVTLEGAFDGIMYYLTPQWDKILEAKVWGDAASQIFYSLGCAWGGLITMASYNKFHNNCYRDSVIISITNCATSVYAGFVIFSILGFMANHLGVDVSRVADHGPGLAFVAYPEALTLLPISPLWSLLFFFMLILLGLGTQFCLLETLVTAIVDEVGNEWILQKKTYVTLGVAVAGFLLGIPLTSQAGIYWLLLMDNYAASFSLVVISCIMCVAIMYIYGHRNYFQDIQMMLGFPPPLFFQICWRFVSPAIIFFILVFTVIQYQPITYNHYQYPGWAVAIGFLMALSSVLCIPLYAMFRLCRTDGDTLLQRLKNATKPSRDWGPALLEHRTGRYAPTIAPSPEDGFEVQPLHPDKAQIPIVGSNGSSRLQDSRI
binds: all assays above

Source: paper PMC9781295
